This passage reports binding results from patent US20250333534A1.

Assay [1] has as its target T1, Rhesus CD155 protein (Rhesus CD155), expressed on CHO-K1 cells (Rhesus (monkey)).
T1 sequence: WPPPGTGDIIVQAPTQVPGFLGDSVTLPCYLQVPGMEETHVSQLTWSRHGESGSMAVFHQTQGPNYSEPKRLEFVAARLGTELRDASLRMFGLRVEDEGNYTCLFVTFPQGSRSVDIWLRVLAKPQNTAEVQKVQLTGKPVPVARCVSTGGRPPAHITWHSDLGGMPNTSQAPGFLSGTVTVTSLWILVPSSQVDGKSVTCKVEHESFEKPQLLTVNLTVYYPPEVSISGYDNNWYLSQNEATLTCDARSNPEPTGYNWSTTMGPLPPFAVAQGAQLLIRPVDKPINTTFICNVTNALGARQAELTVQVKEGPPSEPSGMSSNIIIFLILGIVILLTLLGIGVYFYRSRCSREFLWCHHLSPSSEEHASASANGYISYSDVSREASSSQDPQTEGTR
Put plainly: flow cytometry on CHO-K1-Rhesus CD155 cells.

Assay [2] addresses T2, CD155-His tag fusion protein (purchased from Acro) (human) (UniProt P15151).
T2 sequence (looked up): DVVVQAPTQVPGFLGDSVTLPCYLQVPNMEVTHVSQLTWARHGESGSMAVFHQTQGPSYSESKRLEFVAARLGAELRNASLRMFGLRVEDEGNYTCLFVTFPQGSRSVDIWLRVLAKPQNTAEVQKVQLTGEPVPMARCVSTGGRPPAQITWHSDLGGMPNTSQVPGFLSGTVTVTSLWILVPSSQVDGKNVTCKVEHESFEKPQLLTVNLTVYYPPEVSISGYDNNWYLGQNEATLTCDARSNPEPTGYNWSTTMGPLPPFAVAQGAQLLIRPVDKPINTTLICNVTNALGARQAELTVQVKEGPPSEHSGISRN
Put plainly: ELISA on coated CD155-His. In general terms: ELISA stands for enzyme-linked immunosorbent assay.

Assay [3] addresses Rhesus CD155-His tag fusion protein (purchased from Acro) (Rhesus (monkey)). Put plainly: ELISA on coated Rhesus CD155-His.

Numbering of substitutions follows the chain as printed. These are yes or no findings as the source states them, for the method shown. Some binding calls cover weakened binding; strength is not graded here. For some assays here: Where a sequence is shown, tags or fusion partners need not be part of it.

B1: murine CD155 antibody (mutgi1005) (antibody, mouse IgG2a)
heavy: QVQMQQSGAELVKPGASVKLSCKTSGFTFSSSYISWLKQKPGQSLEWIAWIYAGTGDTNYNQKFTGKAQVTVDTSSSTAYMQFSSLTTEDSAIYYCVRHGSTGRGWYFAVWGAGTTVTVSSAKTTAPSVYPLAPVCGDTTGSSVTLGCLVKGYFPEPVTLTWNSGSLSSGVHTFPAVLQSDLYTLSSSVTVTSSTWPSQSITCNVAHPASSTKVDKKIEPRGPTIKPCPPCKCPAPNLLGGPSVFIFPPKIKDVLMISLSPIVTCVVVDVSEDDPDVQISWFVNNVEVHTAQTQTHREDYNSTLRVVSALPIQHQDWMSGKEFKCKVNNKDLPAPIERTISKPKGSVRAPQVYVLPPPEEEMTKKQVTLTCMVTDFMPEDIYVEWTNNGKTELNYKNTEPVLDSDGSYFMYSKLRVEKKNWVERNSYSCSVVHEGLHNHHTTKSFSRTPGK
light: QAVVTQESALTTSPGETVTLTCRSSTGAVTTSNYANWVQEKPDHLFTGLIGGTNNRAPGVPARFSGSLIGDKAALTITGAQTEDEAIYFCALWYSNHFVFGGGTKLTVLQPKSSPSVTLFPPSSEELETNKATLVCTITDFYPGVVTVDWKVDGTPVTQGMETTQPSKQSNNKYMASSYLTLTARAWERHSSYSCQVTHEGHTVEKSLSRADCS
For B1, the binding entry in assay [1] was “binds”.

B2: affinity-matured humanized antibody V20 (tgi1005 V20-hIgG1/4/1LALA) (antibody, V domains shown)
VH: QVQLVQSGAEVKKPGASVKVSCKASGYTFTSSYISWVRQAPGQGLEWIAWIYAGTGDTNYNQKFTGRVTMTTDTSTSTAYMELRSLRSDDTAVYYCARHGYTGRGWYFAVWGQGTTVTVSS
VL: QAVVTQEPSLTVSPGGTVTLTCRSSTGAVTTSNLANWVQQKPGQAFRGLIGHTNNRAPGVPARFSGSLLGDKAALTLSGAQPEDEAEYYCALWYSNKFVFGGGTKLTVL
For the molecule B2, the binding entry in assay [2], in assay [3] and in assay [1] was “binds” each time.

B3: affinity-matured humanized antibody V40 (tgi1005 V40-hIgG1/4) (antibody, V domains shown)
VH: B2 VH with Y101M
VL: B2 VL with A91I
For the molecule B3, the binding result in assay [2], in assay [3] and in assay [1] was “binds” throughout.

B4: affinity-matured humanized antibody V28 (tgi1005 V28-hIgG1/4/1LALA) (antibody, V domains shown)
VH: B2 VH with Y101L, G105H
VL: B2 VL with L34I, H52G, A57G, A91I
For the molecule B4, the binding entry in assay [2], in assay [3] and in assay [1] was “binds” in each case.

B5: humanized antibody V0 (tgi1005 V0-hIgG1/4) (antibody, V domains shown)
VH: B2 VH with Y101S
VL: B2 VL with L34Y, H52G, K97H
Take B5: the binding result in assay [2] is listed as “binds”.

B6: affinity-matured humanized antibody V21 (tgi1005 V21-hIgG1/4) (antibody, V domains shown)
VH: B2 VH
VL: B2 VL with L34Y, H52G, A91I, K97H
Turning to B6, the binding entry in assay [2], in assay [3] and in assay [1] was “binds” throughout.
